Results are given in words; binding and its absence hold for the method and conditions named. Some entries that bind do so weakly or less than the wild type.
Target: human JAK1 kinase domain (human) (UniProt P23458)
Test: crystal structure; ggSOCS1 48-164 and human JAK1 kinase domain co-expressed in Sf21 and co-purified, with ADP bound; hanging drop, 8 °C, 100 mM HEPES pH 7.0, 14% PEG 8000, 100 mM MgAc; 2.5 Å; both purified

Chains of the proteins cited; added tags and fusions are not shown. Lines headed by an entry give the natural chain unless they say otherwise; changes in a name come on top. A line that says so, or that is headed by a name, gives the form on record, which may keep a tag or linker. Residues count along the entry.
Gallus gallus SOCS1 without its SOCS Box domain (residues 48-164) (A0A8V0ZGP4, form named): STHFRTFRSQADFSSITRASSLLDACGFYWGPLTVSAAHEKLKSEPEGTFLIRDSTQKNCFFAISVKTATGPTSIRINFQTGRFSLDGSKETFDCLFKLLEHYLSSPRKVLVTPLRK

In the case of “Gallus gallus SOCS1 without its SOCS Box domain (residues 48-164) (from UniProt A0A8V0ZGP4 48-164) (domain or fragment)”, the binding is reported as “binds”.

— PMC5908791
